Experimental data: article doi:10.1101/2021.12.29.474426
No constants are given. Whether binding was seen depends on the method and setting. Binding seen in cells or lysates may run through a third protein. Some results given as binding are weak or reduced against the parent protein; the word gives no strength.

Assays:
Experiment in all cases: co-IP
[1] = target: HA-tagged EBNA2 (full-length) (Epstein-Barr virus) (UniProt P12978)
[2] = target: HA-tagged EBNA2 H15A mutant (Epstein-Barr virus) (UniProt P12978)
[3] = target: HA-tagged EBNA2 α1-helix deletion mutant (Epstein-Barr virus) (UniProt P12978)

B1: early B cell factor (EBF) 1 (protein, UniProt Q9UH73 1-591)
chain: MFGIQESIQRSGSSMKEEPLGSGMNAVRTWMQGAGVLDANTAAQSGVGLARAHFEKQPPSNLRKSNFFHFVLALYDRQGQPVEIERTAFVGFVEKEKEANSEKTNNGIHYRLQLLYSNGIRTEQDFYVRLIDSMTKQAIVYEGQDKNPEMCRVLLTHEIMCSRCCDKKSCGNRNETPSDPVIIDRFFLKFFLKCNQNCLKNAGNPRDMRRFQVVVSTTVNVDGHVLAVSDNMFVHNNSKHGRRARRLDPSEGTPSYLEHATPCIKAISPSEGWTTGGATVIIIGDNFFDGLQVIFGTMLVWSELITPHAIRVQTPPRHIPGVVEVTLSYKSKQFCKGTPGRFIYTALNEPTIDYGFQRLQKVIPRHPGDPERLPKEVILKRAADLVEALYGMPHNNQEIILKRAADIAEALYSVPRNHNQLPALANTSVHAGMMGVNSFSGQLAVNVSEASQATNQGFTRNSSSVSPHGYVPSTTPQQTNYNSVTTSMNGYGSAAMSNLGGSPTFLNGSAANSPYAIVPSSPTMASSTSLPSNCSSSSGIFSFSPANMVSAVKQKSAFAPVVRPQTSPPPTCTSTNGNSLQAISGMIVPPM
- binding [1]: binds
- binding [2]: binds
- binding [3]: no binding
